Here are results for 62 substances from the supplement of paper PMC5949888.

Most values lie at the floor of the assay. Slopes are relative: functional sequences can read slightly below zero. Where only a bound is given, the exact number is not on record here.

The data set deals with Saccharomyces cerevisiae PS128 hsf1 delta, HSF1(1-493) fusion. In words: growth estimate (transactivation domain function in HSF1 fusion, heat-shock survival) (a.u. (slope of normalised read count over time)); higher = stronger growth at 37°C, i.e. more transactivation activity. The following applies: library: random library.
Take VRMMTIGLTREGRSGCHIRS: the growth estimate is below -0.25.
The figure for VPTEFILSALPPLKCSTTSN is -0.231; for SCD it is below -0.25.
As to GSGPSRYSRLAGEKRKFKKG, the growth estimate was below -0.25.
The value for FSN was below -0.25; that for EKRSTRAS was below -0.25; that for RWGGTVSGQW was below -0.25.
The figure for SEDIAARKARQLVNGTYTPP is below -0.25.
The figure for TSS is below -0.25; for QVYQGSIFMTSECIKES it is below -0.25; for DLILLQISNLYR it is below -0.25.
Turning to RGRSHFPIMRALVAAYANSD, the growth estimate is below -0.25.
The value for FLHGNSQSCAMLGKA was below -0.25.
The value for GCSIRATLTWPRSIAHTPVC was below -0.25.
The figure for YCWPHPTA is below -0.25; for RRNLG it is below -0.25; for KFPQSD it is below -0.25.
On to DRISDARHWLSYKPPLRRPA, for which the growth estimate is below -0.25.
On to SLIVLHRIMRNSSASKLSIT, for which the growth estimate is below -0.25.
In the case of FGRCLRDRAVPPHRIVQTIG, the growth estimate was below -0.25.
The value for PYCAGVVYDLTLEWAIPCHQ was below -0.25; that for CETGLL was below -0.25; that for FAPLRTYTSYIDGTDAWFNG was -0.159.
The value for LNLLWCVDGVAITVATRFDH was below -0.25; that for HGVTMRKDNHNQSIIYTPVS was below -0.25.
The value for TRYCAAKR was below -0.25; that for QYLFRVEGI was -0.25; that for KIGFKVSHACTGGHLTPSV was below -0.25.
As for LFVRGNAVTPDRADRMPAVA, the growth estimate was below -0.25.
The figure for AIGCGGPVYPVVMGRH is below -0.25; for TFHEYARSC it is below -0.25.
The value for YREAVKGGTFLPCWRVAPKP was below -0.25; that for GVALWTIDLPHFRAQVRGRL was below -0.25.
The value for EPMTDKHVGLLT was below -0.25; that for IYGGPISAYYSRGERGGSRQ was below -0.25; that for VSGRFAHAEAPGSVAHP was below -0.25.
With LSNSEEGHHPER, the growth estimate is below -0.25.
The value for PVGAVSGTAVAPGCPQLFAD was below -0.25.
For the substance FGVALSSTRRVITGAGTGGT, the growth estimate was below -0.25.
The figure for DYCSLKLLRAFRVTRIAQVG is below -0.25.
The value for LLYLRKSVNWRF was below -0.25.
The figure for CMNLGANRMGVT is below -0.25; for AYIRLRCLTVIMAQAQ it is below -0.25.
For the substance CAQQLSVQHATDPFSITARS, the growth estimate is below -0.25.
As for PGLRSFRCWCQRLEIPVVR, the growth estimate was below -0.25.
The value for LSYFWLIWVRG was below -0.25; that for EVHCLPTIHGIFFIRRYFSA was below -0.25; that for SCYPSPSWLLSVPTSQLGSA was below -0.25.
The figure for VAHPSMHVTSSLS is below -0.25; for GKLNLRGGRIHITYTEMWLT it is below -0.25.
The value for LSEKAPSPLLRCYDHALSSD was below -0.25; that for IGGDGNRGTDDGCHKTRCIP was below -0.25; that for EQFKSLGDAEQEGNPKQFRF was -0.0573.
LLPYRLQTYCSVGSATRVLE: the growth estimate was below -0.25.
The value for IWIRHRGRTVACPA was below -0.25; that for SQQRKHRREAERICLNLTTD was below -0.25.
The value for SGASEFR was below -0.25; that for YCTNIVIVQGSRRVALSLLL was below -0.25.
Regarding GGGGSVCAGSERSPPAKRYT, the growth estimate was below -0.25.
The value for PHCISRASVRNIHRPLDRVV was 0.0112; that for SSTPGRLTQVLARSSRVQHK was below -0.25.
The figure for EMQISVLPGL is below -0.25.
